Experimental data as given in PubChem BioAssay AID504444 (National Center for Advancing Translational Sciences (NCATS), 2011).
Out of some 360,000 compounds screened, about 7,500 (2.1%) were called active. Inconclusive results, whose numbers are uncertain, are shown with a selection of clear calls. The call rests on the fitted dose curve; in most records, active means well fitted inhibition curve with a large enough effect; inconclusive means small, poorly fitted or top-dose-only effect, or effect the other way; inactive means flat fitted curve, though single readings scatter. Potencies of inconclusive entries are doubtful fits and often do not repeat.

Experiment: Nrf2 qHTS screen for inhibitors; further: nearly all actives have a fitted effect of over 60% in size
Conditions: A549 ARE-Fluc reporter, luciferase luminescence, 18-24 h; series mostly up to 46 µM
In short: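 Reporter: ARE-Fluc in A549. Exposure: 18-24 h, 37 °C, 5% CO2, 5% FBS OPTI-MEM. Readouts: fluorescent cytotoxicity (CellTiter-Fluor), then luminescent Nrf2 signal after BugLite.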
Potency means the concentration at half of the fitted maximal effect.

| Compound | Potency |
| --- | --- |
| CNC(=O)NC(=O)C(C)OC(=O)c1c2c(nc3ccccc13)/C(=C/c1cccs1)CC2 (stereo unspecified) | inconclusive: 25.9 µM [activator, single point] |
| CCOc1c(Br)cc(C(N)=O)cc1OCc1ccccc1 | inconclusive: 29.1 µM [activator, single point] |
| Clc1ccccc1OCc1nc(-c2ccccn2)no1 | inconclusive: 0.651 µM [activator, full curve] |
| NC(=O)COC(=O)c1ccc(Cl)c(S(=O)(=O)N(Cc2ccccc2)c2ccc(Cl)cc2)c1 | inactive |
| CN(CC(=O)Nc1ccccc1Br)c1ncnc2sccc12 | active: 9.2 µM |
| CCOc1ccc(-c2oc3ccccc3c(=O)c2O)cc1OCC | inactive |
| CCCS(=O)(=O)c1ncc(Cl)c(C(=O)N(Cc2ccccc2)Cc2ccco2)n1 | active: 16.4 µM |
| C=C(c1ccccc1C)[n+]1ccccc1 | active: 18.4 µM |
| CCOC(=O)c1c(NC(=O)c2nn(CC)cc2Br)c(C#N)cn1-c1ccccc1 | inconclusive: 20.6 µM [falling, single point] |
| COc1ccccc1C(=O)NC1CCCCCCC1 | inconclusive: 8.2 µM [activator, partial curve] |
| COc1cc2c(cc1OC)-c1cc(NC3CCCCCC3)nc(=O)n1CC2 | inconclusive: 29.1 µM [falling, single point] |
| COc1ccc(Cl)cc1NC(=O)COC(=O)c1c(-c2ccccc2)noc1C | active: 10.3 µM |
| O=C(CSc1ccncc1)Nc1ccc2ccccc2c1 | inactive |
| CC(C)C[C@H](NC(=O)OC(C)(C)C)C(=O)N1CCC(C(=O)N[C@@H](Cc2ccccc2)C(=O)O)CC1 | inconclusive: 7.31 µM [falling, partial curve, poor fit] |
| Nc1nnc2c(C(F)(F)F)nc3ccccc3n12 | inconclusive: 8.2 µM [falling, partial curve, poor fit] |
| O=C(OCCOc1ccccc1)c1n[nH]c2ccccc12 | inconclusive: 16.4 µM [activator, partial curve] |
| CC1(C)Nc2ccc(O)cc2-c2c1ssc2=S | inactive |
| CC(=O)Nc1ccc(NC(=O)CSc2nnc(CC(C)O)n2-c2ccccc2)cc1 (stereo unspecified) | inactive |
| Cc1csc(NC(=O)CSc2nnc(-c3ccc(S(=O)(=O)N4CCCC4)cc3)o2)n1 | inconclusive: 23.1 µM [falling, partial curve, poor fit] |
| CCCC(=O)NC(c1ccccc1)c1ccc2cccnc2c1O (stereo unspecified) | inconclusive: 8.2 µM [falling, partial curve] |
| Cc1cccc(N(C(=O)CCC(=O)Nc2cc(C)on2)C(C(=O)NC2CCCC2)c2ccccc2)c1 (stereo unspecified) | inactive |
| CC(C)CC(=O)N1CCN(Cc2ccc(C(F)(F)F)cc2)CC1 | inconclusive: 20.6 µM [falling, single point] |

| Compound | Potency |
| --- | --- |
| C=CCNc1nc(-c2c(C)nc3ncccn23)cs1 | inactive |
| Cc1ccccc1C1=Nn2c(nnc2-c2ccco2)SC1 | inconclusive: 0.58 µM [falling, partial curve, poor fit] |
| CCN(CC)S(=O)(=O)c1ccc(NC(=O)c2ccc(CN3CCOCC3)cc2)cc1 | active: 3.66 µM |
| COc1ccc(CNC(=O)c2ccc3ccccc3n2)cc1OC | active: 13 µM |
| COc1ccc2[nH]c(=O)c(COC(=O)c3ccco3)cc2c1 | inconclusive: 6.51 µM [activator, single point] |
| COc1cc(OC)cc(C(=O)Nc2cc3nn(-c4ccccc4)nc3cc2Cl)c1 | inconclusive: 2.59 µM [activator, full curve] |
| CC1(c2ccc3noc(-c4cccc(F)c4)c3c2)OCCO1 | inconclusive: 29.1 µM [falling, single point] |
| COc1ccc(S(=O)(=O)N2CCCCCC2)cc1C(=O)N(C)CC(=O)Nc1ccc(Cl)c(Cl)c1 | inconclusive: 16.4 µM [falling, partial curve, poor fit] |
| O=C1CN(S(=O)(=O)c2ccc3c(c2)OCCO3)CCN1S(=O)(=O)c1c(F)cccc1F | inactive |
| NC(=O)/C=C/C(=O)Nc1ccc(Cl)cc1 | inconclusive: 29.1 µM [falling, single point] |
| CN(Cc1ccccc1)C(=O)c1cc2ccccc2o1 | inconclusive: 25.9 µM [activator, partial curve, poor fit] |
| CC1CN(C(=O)c2cccc(COc3ccccc3Cl)c2)CC(C)O1 (stereo unspecified) | inconclusive: 16.4 µM [activator, partial curve] |
| Cc1ccc(-c2onc(C)c2C)cc1S(=O)(=O)N1CCCCC1 | inconclusive: 20.6 µM [falling, partial curve, poor fit] |
| O=c1nc(Nc2ccccc2)oc2ccccc12 | inconclusive: 8.2 µM [activator, partial curve, poor fit] |
| Cn1c(=O)c([N+](=O)[O-])c(NCc2ccccc2Cl)c2ccccc21 | inconclusive: 16.4 µM [falling, single point] |
| CN(CC(=O)NCCCc1ccccc1)S(=O)(=O)c1ccc(Br)cc1 | inactive |
| CCOC(=O)c1sc2ccccc2c1S(=O)(=O)Nc1c(C)cccc1C | inconclusive: 29.1 µM [falling, single point] |
| O=C(NNC(=O)c1nc2ccccc2[nH]1)OCc1ccccc1 | inconclusive: 32.6 µM [activator, single point] |
| CC(C)c1ccc2c(c1)C1Cc3ccccc3C1N2 (stereo unspecified) | inconclusive: 32.6 µM [falling, single point] |
| Cc1cc(=O)n2nc(-c3ccc(C(F)(F)F)cc3)sc2n1 | inconclusive: 20.6 µM [activator, partial curve, poor fit] |
| Cc1cc(C)n2nc(SCC(=O)c3c(N)n(CC(C)C)c(=O)n(C)c3=O)nc2n1 | inconclusive: 20.6 µM [falling, partial curve] |
| Cc1cc(NC(=O)CSc2nnc(N)s2)c([N+](=O)[O-])cc1C | inconclusive: 13 µM [falling, partial curve, poor fit] |

Shown bar-delimited: part of the list above
Compound | Potency
CNC(=O)NC(=O)C(C)OC(=O)c1c2c(nc3ccccc13)/C(=C/c1cccs1)CC2 (stereo unspecified) | inconclusive: 25.9 µM [activator, single point]
NC(=O)COC(=O)c1ccc(Cl)c(S(=O)(=O)N(Cc2ccccc2)c2ccc(Cl)cc2)c1 | inactive
C=C(c1ccccc1C)[n+]1ccccc1 | active: 18.4 µM
CC(=O)Nc1ccc(NC(=O)CSc2nnc(CC(C)O)n2-c2ccccc2)cc1 (stereo unspecified) | inactive
CCCC(=O)NC(c1ccccc1)c1ccc2cccnc2c1O (stereo unspecified) | inconclusive: 8.2 µM [falling, partial curve]
Cc1cccc(N(C(=O)CCC(=O)Nc2cc(C)on2)C(C(=O)NC2CCCC2)c2ccccc2)c1 (stereo unspecified) | inactive
CC(C)CC(=O)N1CCN(Cc2ccc(C(F)(F)F)cc2)CC1 | inconclusive: 20.6 µM [falling, single point]
CCN(CC)S(=O)(=O)c1ccc(NC(=O)c2ccc(CN3CCOCC3)cc2)cc1 | active: 3.66 µM
COc1cc(OC)cc(C(=O)Nc2cc3nn(-c4ccccc4)nc3cc2Cl)c1 | inconclusive: 2.59 µM [activator, full curve]
CC1(c2ccc3noc(-c4cccc(F)c4)c3c2)OCCO1 | inconclusive: 29.1 µM [falling, single point]
COc1ccc(S(=O)(=O)N2CCCCCC2)cc1C(=O)N(C)CC(=O)Nc1ccc(Cl)c(Cl)c1 | inconclusive: 16.4 µM [falling, partial curve, poor fit]
O=c1nc(Nc2ccccc2)oc2ccccc12 | inconclusive: 8.2 µM [activator, partial curve, poor fit]
CN(CC(=O)NCCCc1ccccc1)S(=O)(=O)c1ccc(Br)cc1 | inactive
CCOC(=O)c1sc2ccccc2c1S(=O)(=O)Nc1c(C)cccc1C | inconclusive: 29.1 µM [falling, single point]
Cc1cc(=O)n2nc(-c3ccc(C(F)(F)F)cc3)sc2n1 | inconclusive: 20.6 µM [activator, partial curve, poor fit]

(list continues)

| Compound | Potency |
| --- | --- |
| CCOc1ccc(S(=O)(=O)N2CCC(C(=O)N3CCc4ccccc4C3)CC2)cc1 | inconclusive: 16.4 µM [falling, single point] |
| Cc1noc(NS(=O)(=O)c2ccc(NC(=O)c3oc4ccc(Cl)cc4c3C)cc2)c1C | inconclusive: 6.51 µM [activator, partial curve] |
| COc1cccc(CNC(=O)Cn2cc3c(n2)-c2c(oc(C(=O)N4CCCC4)c2C)CC3)c1OC | inconclusive: 23.1 µM [falling, single point] |
| O=C(NCc1ccccc1)c1ccc2c(c1)OCCO2 | inconclusive: 23.1 µM [activator, single point] |
| Cc1noc(C)c1S(=O)(=O)N1CCCCC1 | inconclusive: 29.1 µM [falling, single point] |
| O=C(CC1Sc2ccccc2NC1=O)Nc1cccc(-c2nnc3n2CCCCC3)c1 (stereo unspecified) | inconclusive: 29.1 µM [activator, single point] |
| Cn1c(=O)c2c(nc(SCC(=O)Nc3ccc(OC(F)(F)F)cc3)n2Cc2cccc(C(F)(F)F)c2)n(C)c1=O | active: 7.31 µM |
| CCn1c(=O)cc(SCC(=O)Nc2cc(OC)c(OC)c(OC)c2)c2ccccc21 | inconclusive: 25.9 µM [falling, single point] |
| Cc1ccc(C(=O)n2nc(-c3ccco3)nc2N)cc1 | inconclusive: 0.259 µM [falling, full curve, poor fit] |
| C[C@H](CO)N1C[C@H](C)[C@@H](CN(C)S(=O)(=O)c2cn(C)cn2)Oc2ccc(NC(=O)Nc3ccc4c(c3)OCO4)cc2C1=O | inconclusive: 1.46 µM [activator, full curve, poor fit] |
| Cc1nc(C(=O)NCc2ccccc2)sc1C1(C)CC(c2cccc([N+](=O)[O-])c2)=NO1 (stereo unspecified) | inconclusive: 23.1 µM [falling, partial curve, poor fit] |
| Cc1ccccc1-n1nnnc1SC(C)C(=O)Nc1ccc(N2CCN(C)CC2)cc1 (stereo unspecified) | inconclusive: 13 µM [activator, partial curve, poor fit] |
| Nc1ccn([C@@H]2O[C@H](CO)[C@@H](O)[C@@H]2O)c(=O)n1 | inconclusive: 0.0731 µM [falling, full curve] |
| COc1ccc(S(=O)(=O)NCCSCc2ccc(Cl)cc2)cc1NC(C)=O | inconclusive: 18.4 µM [falling, single point] |
| O=C1c2ccccc2S(=O)(=O)N1CC1CC(c2ccc(Cl)cc2)=NO1 (stereo unspecified) | inconclusive: 4.61 µM [activator, partial curve] |
| O=C(NC(=S)N1CCN(c2nc(-c3ccccc3)cs2)CC1)c1cccnc1 | inconclusive: 20.6 µM [falling, partial curve, poor fit] |
| CCCCC(=O)c1c(O)c2ccccc2oc1=O | inconclusive: 18.4 µM [falling, single point] |
| CC/C(=N\N=C1\SC(C)C(=O)N1Cc1ccco1)c1ccccc1 (stereo unspecified) | inconclusive: 20.6 µM [falling, single point] |
| CCN(CC)S(=O)(=O)c1cccc(NC(=O)CCNC(=O)NC23CC4CC(CC(C4)C2)C3)c1 | inconclusive: 29.1 µM [falling, single point] |
| Cc1ccc2nc(SCC(=O)NCc3ccc4c(c3)OCO4)nc(=O)n2c1 | inactive |
| O=[N+]([O-])c1cc(-c2cnc3ccccc3n2)ccc1Cl | inconclusive: 20.6 µM [activator, single point] |
| CC(=O)c1cccc(NC(=O)CCc2nc3sc4c(c3c(=O)[nH]2)CCCC4)c1 | inconclusive: 20.6 µM [falling, partial curve, poor fit] |
